# PubChem BioAssay AID743454, Peter MacCallum Cancer Centre | 2014
# Assay: 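Genes whose loss kills vorinostat-resistant colon cancer cells under vorinostat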 (primary screen)
# Cell system: human HCT116-VR colon cancer cells, selected for vorinostat resistance
# Reagents: siRNA pool against human genes, 40 nM siRNA pool
# Duration: vorinostat for 24 h, read-out about 72 h after transfection
# Conditions: vorinostat at 2.5 µM final
# Measured: 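Cell viability by CellTiter-Fluor and caspase 3/7 activity by luminescence, each scaled to mock wells per plate, duplicates averaged, then robust z-scored over all plates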
# Direction: viability robust z-score: higher = more viable cells than screen typical; caspase robust z-score: higher = more caspase 3/7 activity than screen typical
# Call rule: 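Hits are knock-downs in viability class RV1/RV2 or caspase class CA1/CA2, excluding ones that killed cells in the no-drug cell-count arm; hits then retested with single siRNAs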
# In all, the deposit lists about 18,000 reagents; this is a random part of them. 450 of all reagents (2.5%) count as active. 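Single biological run; no consistent viability z cut-off exists, so the class columns, not z-scores, define the calls.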 Entries without a mark were called inactive.
The first 5 entries, to show the layout:
gene,viability hit class,caspase hit class,viability robust z-score,caspase robust z-score
MADD (MAP kinase activating death domain),no change,no change,1.19,0.68
OR10A5 (olfactory receptor family 10 subfamily A member 5),no change,no change,-1.85,-0.84
ZC2HC1A (zinc finger C2HC-type containing 1A),no change,no change,0.15,-0.7
CPAP (centrosome assembly and centriole elongation protein),no change,no change,-0.77,-0.14
"MEFV (MEFV innate immunity regulator, pyrin)",no change,no change,0.8,-0.54

The listing, from the start:
gene,viability hit class,caspase hit class,viability robust z-score,caspase robust z-score
MADD (MAP kinase activating death domain),no change,no change,1.19,0.68
OR10A5 (olfactory receptor family 10 subfamily A member 5),no change,no change,-1.85,-0.84
ZC2HC1A (zinc finger C2HC-type containing 1A),no change,no change,0.15,-0.7
CPAP (centrosome assembly and centriole elongation protein),no change,no change,-0.77,-0.14
"MEFV (MEFV innate immunity regulator, pyrin)",no change,no change,0.8,-0.54
KIR3DL3,no change,no change,-0.12,-0.81
SLC7A14,no change,no change,-0.08,1.36
CPLANE2 (ciliogenesis and planar polarity effector complex subunit 2),no change,no change,-0.5,1.58
CRX (cone-rod homeobox),no change,no change,1.14,-0.77
CASP7 (caspase 7),no change,no change,0.39,-0.74
EDNRB (endothelin receptor type B),no change,no change,-0.88,2.64
SOWAHA (sosondowah ankyrin repeat domain family member A),no change,no change,1.21,-0.11
PLCD3 (phospholipase C delta 3),no change,no change,0.19,-0.9
CYP2D6,no change,no change,-1.91,1.79
MEAF6 (MYST/Esa1 associated factor 6),no change,no change,0.15,-0.99
SFXN1 (sideroflexin 1),no change,no change,0.42,-0.64
CIMIP1 (ciliary microtubule inner protein 1),no change,no change,1.34,-0.52
ACOX2 (acyl-CoA oxidase 2),no change,no change,0.48,0.63
RSL1D1 (ribosomal L1 domain containing 1),no change,no change,-1.39,1.24
"PFKM (phosphofructokinase, muscle)",no change,no change,-0.94,-0.72
FAM131A (family with sequence similarity 131 member A),no change,no change,1.6,0.34
"RAB38 (RAB38, member RAS oncogene family)",no change,no change,-1.88,-0.04
"ACTA2 (actin alpha 2, smooth muscle)",no change,no change,0.3,1.7
REXO4 (RNA exonuclease 4),no change,no change,-2.42,-0.02
CBY2 (chibby family member 2),no change,no change,0.7,1.7
POLH (DNA polymerase eta),no change,no change,0.67,1.52
OR2T2 (olfactory receptor family 2 subfamily T member 2),no change,no change,0.01,0.76
HSD17B11 (hydroxysteroid 17-beta dehydrogenase 11),no change,no change,-0.26,-0.08
DEFB129 (defensin beta 129),no change,no change,-1.13,-0.88
TMC1 (transmembrane channel like 1),no change,no change,1.64,2.1
USP9Y (ubiquitin specific peptidase 9 Y-linked),no change,no change,-0.38,1.62
KIF13B (kinesin family member 13B),no change,no change,-0.15,-0.88
GGA1,no change,no change,-0.55,-0.24
AKAP8 (A-kinase anchoring protein 8),no change (active),CA1 (caspase activation),0.04,6.26
PBX1 (PBX homeobox 1),no change,no change,-0.26,0.13
KRI1 (KRI1 homolog),no change,no change,0.78,-0.64
ZNF500 (zinc finger protein 500),no change,no change,0.26,0.33
OLFML2A (olfactomedin like 2A),no change,no change,-0.92,2.33
DPH3 (diphthamide biosynthesis 3),no change,no change,-0.3,0.29
GSTO1 (glutathione S-transferase omega 1),no change,no change,-1.33,-0.7
PRAC1 (PRAC1 small nuclear protein),no change,no change,1.23,-0.75
APOE (apolipoprotein E),no change,no change,-1.19,0.41
TPPP2 (tubulin polymerization promoting protein family member 2),no change,no change,0.62,-0.46
GPC5 (glypican 5),no change,no change,0.69,-0.18
USP53 (ubiquitin specific peptidase 53),no change,no change,1.4,-0.65
RPLP2 (ribosomal protein lateral stalk subunit P2),RV2 (reduced viability) (active),no change,-3.13,0.09
FGF21 (fibroblast growth factor 21),no change,no change,-0.08,0.01
ZNF628 (zinc finger protein 628),no change,no change,-0.76,1.81
DCC (DCC netrin 1 receptor),no change,no change,-0.25,-0.56
PBDC1 (polysaccharide biosynthesis domain containing 1),no change,no change,0.82,0
NR1H2 (nuclear receptor subfamily 1 group H member 2),no change (active),CA2 (caspase activation),-2.3,9.84
PRH2 (proline rich protein HaeIII subfamily 2),no change,no change,0.54,2.44
CFAP126 (cilia and flagella associated protein 126),no change,no change,0.82,1.14
YWHAE,no change,no change,-0.91,-0.75
ZNF154 (zinc finger protein 154),no change,no change,-1.48,0.44
HAPLN2 (hyaluronan and proteoglycan link protein 2),no change,no change,-0.74,2.02
"RAP2B (RAP2B, member of RAS oncogene family)",no change,no change,-0.88,0.44
